{"source": "the supplement of paper PMC5949888", "note": "Most values lie at the floor of the assay. Slopes are relative: functional sequences can read slightly below zero."}
{"test_system": "Saccharomyces cerevisiae PS128 hsf1 delta, HSF1(1-493) fusion", "assay": "growth estimate (transactivation domain function in HSF1 fusion, heat-shock survival) (a.u. (slope of normalised read count over time)); higher = stronger growth at 37°C, i.e. more transactivation activity", "details": "library: random library", "description": "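Random 60-nt DNA library encoding peptides of up to 20 aa, fused to the C-terminus of yeast HSF1 residues 1-493 (C-terminal TAD deleted) and expressed from the native HSF1 promoter on a CEN plasmid in hsf1-deleted S. cerevisiae PS128. Cells were selected at 37°C on -trp 5-FOA plates for 0, 2, 4, 6 and 8 days and amplicons were sequenced. Growth estimate is the slope of a robust linear fit of total-sum-normalised read counts (normalised to the first time point) over time, using at least 2 replicates. Sequences are classed functional (TAD activity) above a threshold of -0.13, set from stop-codon control sequences.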"}
{"substance": "FRKIMSRREVGET", "growth estimate": "< -0.25"}
{"substance": "FRLLAYLTCRSGACIYAEVG", "growth estimate": "< -0.25"}
{"substance": "FRLLGVAS", "growth estimate": "< -0.25"}
{"substance": "FRLPQVAQ", "growth estimate": "< -0.25"}
{"substance": "FRLQEAMCLLHPR", "growth estimate": -0.192}
{"substance": "FRMLACERPLTRSVKTNGL", "growth estimate": "< -0.25"}
{"substance": "FRNRGALSAGQRCRLE", "growth estimate": "< -0.25"}
{"substance": "FRPRPAP", "growth estimate": "< -0.25"}
{"substance": "FRQLINVYDVDFCQN", "growth estimate": "< -0.25"}
{"substance": "FRQPYGCFQSTGRSSPGSIG", "growth estimate": "< -0.25"}
{"substance": "FRRHIN", "growth estimate": "< -0.25"}
{"substance": "FRRIYFERVKLSNVYYDSRI", "growth estimate": "< -0.25"}
{"substance": "FRRMVR", "growth estimate": "< -0.25"}
{"substance": "FRRVSITVRFGWSRR", "growth estimate": "< -0.25"}
{"substance": "FRSAVESTGRITLASRCGWR", "growth estimate": "< -0.25"}
{"substance": "FRSKSPQN", "growth estimate": "< -0.25"}
{"substance": "FRSQSFPQRILQPHVARVRH", "growth estimate": "< -0.25"}
{"substance": "FRTGSLQQG", "growth estimate": "< -0.25"}
{"substance": "FRTSYSG", "growth estimate": "< -0.25"}
{"substance": "FRTYRL", "growth estimate": "< -0.25"}
{"substance": "FRVC", "growth estimate": "< -0.25"}
{"substance": "FRVDNVATWTMSRLRLSPRK", "growth estimate": "< -0.25"}
{"substance": "FRVIERLDLRDWASLCLHS", "growth estimate": "< -0.25"}
{"substance": "FRYFPYNILLTQCTGLRVAQ", "growth estimate": "< -0.25"}
{"substance": "FRYMLKRPKNSTPIIQIATV", "growth estimate": "< -0.25"}
{"substance": "FRYSLVRCRY", "growth estimate": "< -0.25"}
{"substance": "FSAFIVA", "growth estimate": -0.246}
{"substance": "FSAQWPVFVTSGAILIAVRV", "growth estimate": "< -0.25"}
{"substance": "FSASLFAKSSQSTRLHSPTQ", "growth estimate": "< -0.25"}
{"substance": "FSATDGVRSEGFGILKPTGH", "growth estimate": "< -0.25"}
{"substance": "FSCSSGPWSLLCTFSTCCHT", "growth estimate": "< -0.25"}
{"substance": "FSEGFL", "growth estimate": "< -0.25"}
{"substance": "FSESKS", "growth estimate": "< -0.25"}
{"substance": "FSESSQLQLQSCAVKTRLPC", "growth estimate": "< -0.25"}
{"substance": "FSFANSGSSV", "growth estimate": "< -0.25"}
{"substance": "FSFGPSGRQNRGARVGSTSA", "growth estimate": "< -0.25"}
{"substance": "FSFHHIWCCGQEIPFLTVPP", "growth estimate": "< -0.25"}
{"substance": "FSGSLNSGSQGPRDMHECQL", "growth estimate": "< -0.25"}
{"substance": "FSHNCGGPSLTTAVVSLANR", "growth estimate": "< -0.25"}
{"substance": "FSI", "growth estimate": "< -0.25"}
{"substance": "FSIVDRAVSTSCA", "growth estimate": "< -0.25"}
{"substance": "FSLPVWFFGVVVCLAIPLVL", "growth estimate": "< -0.25"}
{"substance": "FSMHVKQSRLRIGSVRLTGL", "growth estimate": "< -0.25"}
{"substance": "FSN", "growth estimate": "< -0.25"}
{"substance": "FSPWSRSPKPKIVTT", "growth estimate": "< -0.25"}
{"substance": "FSQSLFYAVYWRVCPATRDQ", "growth estimate": "< -0.25"}
{"substance": "FSRIK", "growth estimate": "< -0.25"}
{"substance": "FSRM", "growth estimate": "< -0.25"}
{"substance": "FSRSALWSQECSMS", "growth estimate": "< -0.25"}
{"substance": "FST", "growth estimate": "< -0.25"}
{"substance": "FTA", "growth estimate": "< -0.25"}
{"substance": "FTGGSRSTLGGYLTGWPSTH", "growth estimate": "< -0.25"}
{"substance": "FTGPFSISPVSAGSLGSLS", "growth estimate": "< -0.25"}
{"substance": "FTIAAYFWEDCCCQSSSGQA", "growth estimate": "< -0.25"}
{"substance": "FTISVVR", "growth estimate": "< -0.25"}
{"substance": "FTLFDRTGIPSEKTPIVLPD", "growth estimate": "< -0.25"}
{"substance": "FTNVSD", "growth estimate": "< -0.25"}
{"substance": "FTPVSEGKRRATGNLYQFAG", "growth estimate": "< -0.25"}
{"substance": "FTRHHMRSMGSAAVARHASG", "growth estimate": "< -0.25"}
{"substance": "FTRMTALTRREVSVTGVHQT", "growth estimate": "< -0.25"}
{"substance": "FTRTSHLTLVTTDHHNSGLV", "growth estimate": -0.246}
{"substance": "FTRTTAHYPRVCNGSRSR", "growth estimate": "< -0.25"}
{"substance": "FTTGLAYVT", "growth estimate": "< -0.25"}
{"substance": "FTV", "growth estimate": "< -0.25"}
{"substance": "FTWTQVIVHSAGRRLPGEKT", "growth estimate": "< -0.25"}
{"substance": "FTYTLVLLCST", "growth estimate": "< -0.25"}
{"substance": "FVAYR", "growth estimate": "< -0.25"}
{"substance": "FVC", "growth estimate": "< -0.25"}
{"substance": "FVCNHSGSRDHTAWCAPGTA", "growth estimate": "< -0.25"}
{"substance": "FVEIVNSFKNA", "growth estimate": "< -0.25"}
{"substance": "FVGPRLNSPSGTGAH", "growth estimate": "< -0.25"}
{"substance": "FVKGP", "growth estimate": "< -0.25"}
{"substance": "FVL", "growth estimate": "< -0.25"}
{"substance": "FVLESG", "growth estimate": "< -0.25"}
{"substance": "FVLVNSRRG", "growth estimate": "< -0.25"}
{"substance": "FVNLLWLATSTRRVKFLYRL", "growth estimate": "< -0.25"}
{"substance": "FVNLNRRVPSSPCWPWFSGL", "growth estimate": "< -0.25"}
{"substance": "FVQSCPSETRVLTIL", "growth estimate": "< -0.25"}
{"substance": "FVRCRAGRNMEGPGLGLSDK", "growth estimate": -0.25}
{"substance": "FVRFVVAQVKYLCERPLISV", "growth estimate": "< -0.25"}
{"substance": "FVRVEAGTCLGTCMGGK", "growth estimate": "< -0.25"}
{"substance": "FVRVTIFGLIGRVVPFARFV", "growth estimate": "< -0.25"}
{"substance": "FVSER", "growth estimate": "< -0.25"}
{"substance": "FVSFSERAP", "growth estimate": "< -0.25"}
{"substance": "FVSFWVLVWNP", "growth estimate": "< -0.25"}
{"substance": "FVTVATTRWRESPCCDF", "growth estimate": "< -0.25"}
{"substance": "FVYRYKSGKPPREDPVVGTD", "growth estimate": "< -0.25"}
{"substance": "FWACCSHRHGCCTCDGWFS", "growth estimate": "< -0.25"}
{"substance": "FWASRAITLSF", "growth estimate": "< -0.25"}
{"substance": "FWEGFVLPRFCCRPSRWAKV", "growth estimate": "< -0.25"}
{"substance": "FWGLYN", "growth estimate": "< -0.25"}
{"substance": "FWHRGAESYLLVDVSSQLRS", "growth estimate": "< -0.25"}
{"substance": "FWMTF", "growth estimate": "< -0.25"}
{"substance": "FWQ", "growth estimate": "< -0.25"}
{"substance": "FWQLVAGRGGHSRLRSNHSR", "growth estimate": "< -0.25"}
{"substance": "FWSEKALLPVRGFDAALGGL", "growth estimate": "< -0.25"}
{"substance": "FWSRSEYQ", "growth estimate": "< -0.25"}
{"substance": "FWSVVTCGTPR", "growth estimate": "< -0.25"}
